# Reference: publication PMC12431657, “Discovery and mechanistic insights of dibenzoylmethane as a broad spectrum inhibitor of coronavirus” (PLOS Pathogens, 2025)
# Where a name gives a salt, the structure may show the parent alone. Read-outs that look alike come from different tables or passages of the source. Screen size: about 3,300 compounds; about 95 (3%) showed an effect of 50% or more. Some of the results follow. Peptide text beside a SMILES is read from it.
# Test system: HCoV-229E
# Design: species or system Huh-7; HTS, protection from HCoV-229E induced cell death, luminescent cell viability (CellCounting-Lite 2.0), inhibition rate
# Conditions: 24 h post infection, 1 h compound pre-incubation, 10 µM, inhibitor
Compound,229E Inhibition rate [%],"229E Inhibition rate (229E Inhibition rate, 24 h) [%]"
CCCCCCCC/C=C\CCCCCCCCCCCC(=O)O [Erucic acid],36.2,–
O=C(O)CCCCCCCCC(=O)O [Decanedioic acid],17.4,–
O=c1c(O)c(-c2ccccc2)oc2cc(O)cc(O)c12 [Galangin],8,–
CC1(C)C=Cc2c(-c3c4c(c5ccccc5c3O)OC(C)(C)C=C4)c(O)c3ccccc3c2O1 [Tectol],44.9,–
OC[C@H]1O[C@@](CO)(OC[C@@]2(OC[C@@]3(OC[C@@]4(O[C@H]5O[C@H](CO)[C@@H](O)[C@H](O)[C@H]5O)O[C@H](CO)[C@@H](O)[C@@H]4O)O[C@H](CO)[C@@H](O)[C@@H]3O)O[C@H](CO)[C@@H](O)[C@@H]2O)[C@@H](O)[C@@H]1O [1F-Fructofuranosylnystose],16.7,–
CCCCC[C@H](CC(=O)NO)C(=O)N[C@H](C(=O)N1CCC[C@H]1CO)C(C)C [Actinonin],7.2,–
"NCC(N)C(=O)O (centres unmarked) [2,3-Diaminopropanoic acid hydrochloride]",6.7,–
O=C(O)c1ccnc2ccccc12 [NSC 13138],11.6,–
"C[C@H](CCC(=O)O)[C@H]1CC[C@H]2[C@@H]3CC[C@@H]4C[C@H](O)CC[C@]4(C)[C@H]3C[C@@H](O)[C@]12C [3α,12β-Dihydroxycholanoic acid]",16.7,–
CCCCCCCCCCCCCCCCO [1-Hexadecanol],14,–
O=C(O)CC(O)(CC(=O)OCc1ccc(O[C@@H]2O[C@H](CO)[C@@H](O)[C@H](O)[C@H]2O)cc1)C(=O)OCc1ccc(O[C@@H]2O[C@H](CO)[C@@H](O)[C@H](O)[C@H]2O)cc1 (some centres unmarked) [Parishin B],14.4,–
COc1cc(/C=C/CO)cc(OC)c1O[C@@H]1O[C@H](CO)[C@@H](O)[C@H](O)[C@H]1O [Syringin],12.5,–
C/C=C(/C)C(=O)O[C@H]1[C@H](O)[C@]2(COC(C)=O)[C@H](O)C[C@]3(C)C(=CC[C@@H]4[C@@]5(C)CC[C@H](O[C@@H]6O[C@H](C(=O)O)[C@@H](O[C@@H]7O[C@H](CO)[C@@H](O)[C@H](O)[C@H]7O)[C@H](O)[C@H]6O[C@@H]6O[C@H](CO)[C@@H](O)[C@H](O)[C@H]6O)[C@](C)(CO)[C@@H]5CC[C@]43C)[C@@H]2CC1(C)C [Isoescin IB],8.9,–
COc1cc(O)c2c(=O)c(-c3ccc(O)cc3)coc2c1 [Prunetin],6.7,–
COc1cc(O)c2c(c1)O[C@H](c1ccc(O)cc1)CC2=O [Sakuranetin],0,–
CC1(C)O[C@H]2CC(=O)OC[C@]23[C@H]2CC[C@@]4(C)[C@H](c5ccoc5)OC(=O)[C@H]5O[C@]54[C@]2(C)[C@@H](O)C(=O)[C@@H]13 [Rutaevin],0,–
N[C@@H](Cc1ccc(O)c(Cl)c1)C(=O)O [3-Chloro-L-tyrosine],12.3,–
O=C(/C=C/c1ccccc1)OCc1ccccc1 [Benzyl cinnamate],40.9,–
Nc1ccn([C@@H]2O[C@H](CO)[C@@H](O)[C@H]2O)c(=O)n1 [Cytidine],9.8,–
CC(C)CCC[C@@H](C)[C@H]1CC[C@H]2[C@@H]3CC=C4C[C@@H](O)CC[C@]4(C)[C@H]3CC[C@]12C [Cholesterol],13.1,–
"N[C@H](C=O)[C@@H](O)[C@H](O)[C@H](O)CO [(2S,3R,4S,5R)-2-Amino-3,4,5,6-tetrahydroxyhexanal hydrochloride]",15.5,–
CCCCCCCC/C=C\CCCCCCCC(=O)OC [Methyl oleate],24.6,–

Compound,229E Inhibition rate [%],"229E Inhibition rate (229E Inhibition rate, 24 h) [%]"
CC1=CC[C@H]2C[C@@H]1C2(C)C [(-)-α-Pinene],20,–
COc1ccc(-c2oc3c4c(cc(O)c3c(=O)c2O)OC(C)(C)CC4)cc1 [β-Anhydroicaritin],14.4,–
O=C(O)CCCCCCCCCCC(=O)O [Dodecanedioic acid],13,–
"CC(C)(CC(=O)O)C(=O)O [2,2-Dimethylsuccinic acid]",13.8,–
CCCCC(O)C(=O)O (centres unmarked) [2-Hydroxyhexanoic acid],15.2,–
CC(=O)Nc1ccc(S(=O)(=O)O)c2cc(S(=O)(=O)O)c(N=Nc3ccccc3)c(O)c12 [Lignin],5.5,–
Cc1cn([C@H]2C[C@H](O)[C@@H](CO)O2)c(=O)[nH]c1=O [Thymidine],10.4,–
CC(C)=C1CC[C@@H](C)CC1=O [Pulegone],22.5,–
"Oc1ccc(O)c(O)c1 [1,2,4-Trihydroxybenzene]",18.5,–
COc1cc2c(c(O)c1OC)-c1c(cc(OC)c(OC)c1OC)C[C@@H](C)[C@@H](C)C2 [Schisanhenol],11.7,–
C[C@H]1CC[C@]2(NC1)O[C@H]1C[C@H]3[C@@H]4CC[C@H]5C[C@@H](O)CC[C@]5(C)[C@H]4CC[C@]3(C)[C@H]1[C@@H]2C [Tomatidine],–,55.9
O=C[C@H](O)[C@@H](O)[C@H](O[C@H]1O[C@H](CO)[C@@H](O[C@H]2O[C@H](CO)[C@@H](O[C@H]3O[C@H](CO)[C@@H](O[C@H]4O[C@H](CO)[C@@H](O)[C@H](O)[C@H]4O)[C@H](O)[C@H]3O)[C@H](O)[C@H]2O)[C@H](O)[C@H]1O)[C@H](O)CO [Maltopentaose],11.2,–
Oc1cc(O)c2c(c1)OC(c1ccc(O)c(O)c1)C(O)C2O (centres unmarked) [Leucocyanidin],0,–
NCCCCC(N)C(=O)O (racemic) [DL-Lysine],9.5,–
"O=C(O)c1cc(O)cc(O)c1 [3,5-Dihydroxybenzoic acid]",32.2,–
O=c1cc(-c2ccccc2)oc2ccc(O)cc12 [6-Hydroxyflavone],19.6,–
COc1ccc(-c2oc3c(CC=C(C)C)c(O)cc(O)c3c(=O)c2O)cc1 [Icaritin],8.6,–
O=c1c(O[C@@H]2O[C@H](CO)[C@@H](O)[C@H](O)[C@H]2O[C@@H]2O[C@H](CO)[C@@H](O)[C@H](O)[C@H]2O)c(-c2ccc(O)c(O)c2)oc2cc(O)cc(O)c12 [Baimaside],15.3,–
C[C@@H]1CC[C@]2(C(=O)O[C@@H]3O[C@H](CO)[C@@H](O)[C@H](O)[C@H]3O)CC[C@]3(C)C(=CC[C@@H]4[C@@]5(C)C[C@@H](O)[C@H](O)C(C)(C)[C@@H]5CC[C@]43C)[C@@H]2[C@]1(C)O [Rosamultin],22.7,–
COc1c(O)c(=O)n2c3ccccc3c3ccnc1c32 [Nigakinone],12.5,–
CC(C)C[C@H](NC(=O)[C@H](C)N)C(=O)O [L-Alanyl-L-leucine] (H-Ala-Leu-OH),12.7,–
COC(=O)/C=C/c1ccc(O)c(O)c1 [Methyl caffeate],12.6,–

Compound,229E Inhibition rate [%],"229E Inhibition rate (229E Inhibition rate, 24 h) [%]"
Oc1cc(O)cc(/C=C/c2c(O)cccc2O)c1 [Gnetol],31.7,–
CCCCCCCCCCCC(=O)O [Lauric acid],19.5,–
C[C@@H](O)CC(=O)O [(R)-3-Hydroxybutanoic acid (sodium)],–,5.9
COc1c(O)cc(O)c2c(=O)cc(-c3ccccc3)oc12 [Wogonin],22.5,–
O=c1cc(O)cc(/C=C/c2ccc(O)c(O)c2)o1 [Hispidin],0,–
"CC(=O)[C@H]1CC[C@H]2[C@@H]3C[C@H](O)[C@H]4C[C@@H](O)CC[C@]4(C)[C@H]3CC[C@]12C [5α-Pregnane-3β,6α-diol-20-one]",39.5,–
Cc1cc(O)c(C)c2c1O[C@](C)(CCC[C@H](C)CCC[C@H](C)CCCC(C)C)CC2 [β-Tocopherol],21,–
"O=Cc1cc(O)ccc1O [2,5-Dihydroxybenzaldehyde]",10.3,–
O=c1[nH]cc([C@@H]2O[C@H](CO)[C@@H](O)[C@H]2O)c(=O)[nH]1 [Pseudouridine],8.5,–
"OC1COC(O)CO1 (centres unmarked) [1,4-Dioxane-2,5-diol]",19.9,–
CC(=O)O[C@H](CC(=O)[O-])C[N+](C)(C)C [Acetyl-L-carnitine (hydrochloride)],6.9,–
CNC[C@@H]1CC[C@@H](N)[C@@H](O[C@H]2[C@H](O)[C@@H](O[C@H]3OC[C@](C)(O)[C@H](NC)[C@H]3O)[C@H](N)C[C@@H]2N)O1 [Micronomicin (sulfate)],3.9,–
O=C(CCCCCCCCc1ccc(O)c(O)c1)c1c(O)cccc1O [Malabaricone C],42.8,–
NC(N)=NCCCC[C@H](N)C(=O)O [H-HomoArg-OH.HCl],15.5,–
CNCC(O)c1ccc(O)cc1 (centres unmarked) [Synephrine (hydrochloride)],–,18.5
CC(CC(=O)C[C@@H](C)[C@H]1CC(=O)[C@@]2(C)C3=C(C(=O)C[C@]12C)[C@@]1(C)CCC(=O)C(C)(C)[C@@H]1C[C@@H]3O)C(=O)O (some centres unmarked) [Ganoderic acid D],35.3,–
CC[C@]12CCCN3CCc4c(n(c5ccccc45)[C@@](O)(C(=O)OC)C1)[C@@H]32 [Vincamine],16.6,–
O=C1NCN(c2ccccc2)C12CCN(CCCOc1ccc(F)cc1)CC2 [Spiramide],51.4,–
C=CCSC[C@H](NC(=O)CC[C@H](N)C(=O)O)C(=O)O [γ-Glutamyl-S-allylcysteine],12.6,–
O=Cc1c[nH]c2cccc(O)c12 [4-Hydroxy-1H-indole-3-carbaldehyde],4.7,–
O=C(O)c1ccccc1O [Salicylic acid],–,0

# One compound at a time (already shown):
# O=Cc1cc(O)ccc1O [2,5-Dihydroxybenzaldehyde] is listed as 229E Inhibition rate [%]: 10.3
# Cc1cc(O)c(C)c2c1O[C@](C)(CCC[C@H](C)CCC[C@H](C)CCCC(C)C)CC2 [β-Tocopherol] is listed as 229E Inhibition rate [%]: 21
